Assay results taken from patent US11951202B2, “Compounds and compositions for use” (DR WELLER LIMITED, priority 2016, dated 2024).

System: full thickness human skin homogenate
Experiment: In vitro NO generation by NO specific Clarke-type electrode, UVA-irradiated skin homogenate
Assay type: biochemical
Settings: UVA radiation, nitrite source
Description: Electrochemical sensors are widely used for the measurement of NO generation and Clark-type electrodes are most widely used as they are commercially available and easy to handle. The principle of these sensors is that NO diffuses through a gas-permeable membrane and a thin film of electrolyte, followed by oxidation on the working electrode. This oxidation creates a current that is proportional to the concentration of NO outside the membrane. The advantage of electrochemical NO sensors is the ability to directly detect NO concentration in solution or in biological samples with a low nanomolar detection limit. This makes NO electrodes an excellent tool for studying NO generation especially in biological samples.
We used the Clarke electrode technique to investigate the mechanism of UVA light dependent NO generation in skin and cosmetically acceptable components which could facilitate augment the endogenous process.
A 10% (g/mL) full thickness human skin homogenate in phosphate buffer was prepared using a glass/glass homogenizer. The homogenate was preheated at 56° C. for 1 hour to inactivate enzymatic generation of NO.
200 ul of homogenate was placed in a quartz cuvette in a thermostatically controlled environment and irradiated with broadband (320-400 nm) UVA radiation. Baseline signals were recorded. […]

`CC(C)(CO)[C@@H](O)C(=O)NCCC(=O)NCCSSCCNC(=O)CCNC(=O)[C@H](O)C(C)(C)CO` [Pantethine, reference compound] was tested, and the “sustained UV induced NO generation from nitrite” value was “ineffective”.
